Measurements reported in PubChem BioAssay AID1259405 (NCATS, 2018)
Aim: 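Knock-downs that lift recombinant protein yield in hamster ovary cells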 (primary screen). Cell system: Chinese hamster CHO-K1 ovary cells with stable secreted eGFP expression. Knock-down reagent: single siRNA against mouse genes, 0.8 pmol siRNA per well (2 µl of 400 nM stock). Time to read-out: 3 days. Measured: 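Percent of the per-plate non-targeting control median for intracellular GFP per well by laser scanning cytometry and for cell viability by ATP luminescence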. Reading the numbers: GFP, % of control: higher = more GFP per well, higher productivity; viability (ATP), % of control: higher = more viable cells (more ATP). Call rule: 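a knock-down is called active if GFP reaches 120% or more of non-targeting control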.
Here is one part, drawn at random, of about 50,000 reagents. Over the whole deposit, about 4,000 (8%) were called active. 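Mouse siRNA library applied to hamster cells; one well for each siRNA.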 Reagents against one gene are numbered here.

Gene	reagent	GFP, % of control	viability (ATP), % of control	Call
Guca2b	1	40.2	53.5	inactive
Guca2b	2	83.5	68.3	inactive
Grin1	1	87.6	70.2	inactive
Grin1	2	52.8	43.9	inactive
Grin1	3	81.2	43.9	inactive
Kpna4	1	12.3	10.5	inactive
Kpna4	2	82	73.5	inactive
Kpna4	3	103	85.3	inactive
Siae	1	83.4	78.9	inactive
Siae	2	94.6	78.1	inactive
Siae	3	60.1	76.9	inactive
Leng8	1	93	67.3	inactive
Leng8	2	51.9	68.3	inactive
Leng8	3	98.6	105	inactive
Nlgn3	1	53.9	63.2	inactive
Nlgn3	2	79.1	86.2	inactive
Nlgn3	3	80.6	109	inactive
Zbtb37	1	68.7	60.7	inactive
Zbtb37	2	58.2	69.1	inactive
Zbtb37	3	101	102	inactive
T	1	91	107	inactive
T	2	78.7	81.3	inactive
T	3	86.9	78.2	inactive
Hif3a	1	40	61.6	inactive
Hif3a	2	68.2	77	inactive
Hif3a	3	56.4	73.8	inactive
Phf2	1	67.6	85.2	inactive
Phf2	2	83.1	86.4	inactive
Phf2	3	92.6	114	inactive
Cyct	1	69.3	68.3	inactive
Cyct	2	122	63.6	active
Cyct	3	92.9	84.3	inactive
Cap2	1	87.4	72	inactive
Cap2	2	95.8	73.4	inactive
Cap2	3	108	113	inactive
Vat1l	1	125	96.6	active
Vat1l	2	79.2	40.1	inactive
Vat1l	3	62.4	68.2	inactive
Rpl35	1	39.9	28.8	inactive
Rpl35	2	66.9	44.5	inactive
Rpl35	3	53.2	56.9	inactive
Rbm19	1	99.9	85.8	inactive
Rbm19	2	68.8	76	inactive
Ntng2	1	81.7	44.6	inactive
Ntng2	2	111	80.6	inactive
Ntng2	3	64.6	59.9	inactive

Targets above whose gene name starts with H or h (3):
Gene	reagent	GFP, % of control	viability (ATP), % of control	Call
Hif3a	1	40	61.6	inactive
Hif3a	2	68.2	77	inactive
Hif3a	3	56.4	73.8	inactive

The list goes on.
Gene	reagent	GFP, % of control	viability (ATP), % of control	Call
Fam98b	1	62.8	56.3	inactive
Fam98b	2	83.1	54.4	inactive
Fam98b	3	64.2	67.9	inactive
Slc13a4	1	95.1	96.1	inactive
Slc13a4	2	55	60	inactive
Slc13a4	3	54.2	69.8	inactive
Polg2	1	67.4	56.7	inactive
Polg2	2	86	103	inactive
Slc39a10	1	138	75.8	active
Slc39a10	2	90.7	79.2	inactive
Slc39a10	3	70.1	94.7	inactive
Vmn1r11	1	47.7	63.1	inactive
Vmn1r11	2	48.1	36.1	inactive
Vmn1r11	3	64.4	97.2	inactive
Rps6kl1	1	112	67	inactive
Rps6kl1	2	49.5	24.3	inactive
Rps6kl1	3	118	88.2	inactive
Prkar1b	1	98.7	94.6	inactive
Prkar1b	2	86.4	85.1	inactive
Iqcf4	1	65.6	50.2	inactive
Iqcf4	2	74.5	66.7	inactive
Iqcf4	3	56.9	72.5	inactive
Fcho2	1	48.1	58.4	inactive
Fcho2	2	83.9	81.5	inactive
Fcho2	3	84.8	76.4	inactive
Slc44a3	1	91.3	43.9	inactive
Slc44a3	2	158	80	active
Slc44a3	3	69.8	43.2	inactive
Xk	1	79.4	103	inactive
Xk	2	102	79.1	inactive
Xk	3	95.2	78.9	inactive
Gm6034	1	83.4	67.6	inactive
Gm6034	2	92	66	inactive
Gm6034	3	35.1	29.1	inactive
Cyp2c37	1	111	48.1	inactive
Cyp2c37	2	153	98	active
Cyp2c37	3	101	60.1	inactive
Gpc2	1	48.6	53.3	inactive
Gpc2	2	123	74.1	active
Gpc2	3	108	54.4	inactive
